In this data set the test system is MDCK-MDR1 monolayer.

A number of entries come with more than one value. This is not the full list of results. The source may hold further records. The records of an entry differ, and nothing given here explains why; dose, time, organism, isomer or construct need not be as stated for each record.

Regarding `Cc1sc2ncnc(SCC(=O)N3CCN(CC(F)(F)F)C(=O)C3)c2c1Cl`, the Papp was 18 ×10⁻⁶ cm/s and 46 ×10⁻⁶ cm/s.

(Values after publication PMC6961116, “Scaffold-hopping identifies furano[2,3-d]pyrimidine amides as potent Notum inhibitors” (Bioorganic & Medicinal Chemistry Letters, 2020).)
